Mtb growth Cornell: 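Whole-cell assay for inhibitors of Mycobacterium tuberculosis growth, labelled Cornell in the record; the read-out is not stated. The concentration is filed as 10 mM, unlikely as a test dose, so the dose is not known. Higher means stronger inhibition (inferred from two other growth screens of the library). Of about 53,000 compounds tested this way, about 900 (1.7%) reached 50% or more in at least one test.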
Mtb heat-shock: 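Assay on Mycobacterium tuberculosis, filed only as a heat shock assay from Cornell; the read-out is not stated. The concentration is filed as 10 mM, unlikely as a test dose, so the dose is not known. Higher reads as stronger inhibition (inferred: compounds with an IC50 in retests scored well above the rest). Of about 69,000 compounds tested this way, about 930 (1.4%) reached 50% or more in at least one test.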

Values are the deposited “Percent Effect”, in %.
How 0% and 100% were set is not recorded. Most values in the screen are low, and negative values occur.
This is an unselected part of the compounds tested.
A dash means the value is not listed here; it may have been measured.

Compound | Mtb growth Cornell | Mtb heat-shock
CN(C)c1ccc(C(=O)Nc2ccn(Cc3ccccn3)n2)cn1 | - | -17.14
CC1CCC(NC(=O)c2nn(C)cc2Br)CC1 (stereo not drawn) | - | 8.197
NC(=O)C1CCN(C(=O)NCCOc2ccc3c(c2)OCO3)C1 (stereo not drawn) | - | -2.753
Cc1noc(NS(=O)(=O)c2ccc(Cl)s2)c1C | -24.59 | -4.31
c1cnc(N2CCOCC3(CCN(c4cnccn4)CC3)C2)nc1 | -3.406 | -0.9198
Cc1ccccc1NC(=O)Nc1cc(N2CCCC2)ncn1 | -34.72 | -12.64
CN(C)C(=O)N1CCN(C(=O)c2ccn3ccnc3c2)CC1 | 9.051 | -10.62
CS(=O)(=O)NC1CCN(Cc2coc(-c3ccccc3)n2)CC1 | - | -29.29
Cc1ccc(-c2nc(CN3CCc4nn(C)c(=O)cc4C3)co2)cc1 | 14.34 | 22.89
Cc1ccc(CN2CCC3(CCCN(Cc4ccc(F)c(F)c4)C3)C2)o1 (stereo not drawn) | - | 10.97
CCc1ncc(CN2CCN(CCOC)CC2)cn1 | -42.46 | -7.707
COCCC(=O)NCc1ccc(-c2ncncc2C(=O)N(C)C)cc1 | 32.24 | 2.506
Fc1ccc(-c2cnc(CN3CCCC3Cn3cccn3)o2)cc1 (stereo not drawn) | 26.88 | 26.91
COCCn1cc(C(=O)N2CCCC(n3cncn3)C2)ccc1=O (stereo not drawn) | -22.29 | 4.16
CCN(CC(=O)NC)C(=O)c1cc(-c2cccc(Cl)c2)no1 | -22.12 | -33.98
CC1CCCN(C(=O)c2cc(-c3ccco3)cs2)C1 (stereo not drawn) | 33.45 | 20.97
COC(=O)c1cc(C(=O)N2CCCCC2C)n(-c2ccccc2)n1 (stereo not drawn) | - | -49.86
CSCC(CCO)NC(=O)Nc1cc(Br)ccc1C (stereo not drawn) | -22.99 | 4.595
O=C(Nc1nc(-c2ccccc2)ns1)N1CCN(C(=O)C2CC2)CC1 | 34.72 | 19.74
O=C(O)C(F)(F)F.[H][C@@]12CN(CC(C)C)C[C@]1([H])C(=O)N(CC)C21CCN(C(=O)NC(C)C)CC1 | 7.451 | 10.52
O=C(NC1CC(=O)N(C2CC2)C1)c1ccc(Cl)s1 (stereo not drawn) | -10.54 | 9.6
COc1ccc(C(=O)C2CCCN(CCCn3cccn3)C2)c(OC)c1 (stereo not drawn) | -4.092 | -6.845
CCC(CC)N(Cc1cc(=O)n(C)c(=O)n1C)C1CC1 | - | -15.42
[H][C@@]12CN(S(C)(=O)=O)C[C@]1(C(=O)NC)CCC21CCN(S(C)(=O)=O)CC1 | -15.16 | -8.329
CCc1cnccc1C(=O)NC1CCN(C(=O)OC)CC1 | -19.48 | -5.246
O=C(O)C(F)(F)F.O=C(O)C(F)(F)F.O=C(O)C(F)(F)F.O=C1NC2(CCN(Cc3cccnc3)CC2)CC1c1cccnc1 (stereo not drawn) | -32.63 | -25.56
CNC(=O)CS(=O)(=O)C1CCN(S(=O)(=O)c2ccccc2Br)CC1 | 7.561 | 6.285
Cc1cc(C2CCCN2Cc2cc(-c3ccco3)on2)on1 (stereo not drawn) | - | -8.212
Cc1cn2c(n1)CCC(NC(=O)c1cc(Br)cn1C)C2 (stereo not drawn) | - | -10.45
O=C(Nc1ccccc1F)N(CCO)Cc1ccsc1 | - | -3.733
CCCn1[nH]cc/c1=N\C(=O)CN1CCCC1Cn1nc(C)nc1C (stereo not drawn) | 11.24 | -5.328
O=C(CNC(=O)c1c(F)cccc1Cl)Nc1ccc(F)cn1 | -4.067 | -13.94
Nc1c(Cl)cnn1C1CCN(Cc2ccccc2)C1 (stereo not drawn) | -10.45 | 9.267
N#Cc1cccc(N2CCC3(CC2)Nc2ccccc2NC3=O)n1 | 25.06 | -16.92
Cc1ccc(OCC(O)CN2CCC(Cn3cccn3)CC2)cc1 (stereo not drawn) | 31.98 | 21.24
c1nc(N2CCOCC2)nc2c1COCC21CCN(CC2CC2)C1 (stereo not drawn) | 3.533 | -0.3717
CC[C@@H](CO)NC(=O)c1cc(COc2ccc(OC)cc2Cl)[nH]n1 | 20.77 | 9.479
CC(C)n1ccnc1CN1CCCN(C(=O)c2ncccc2O)CC1 | - | 5.834
COc1cc(F)ccc1C(C(=O)O)N(C)Cc1ccon1 (stereo not drawn) | -2.287 | 98.53
O=C(O)C(F)(F)F.[H][C@@]12CCN(Cc3ccccc3OC)C[C@]1([H])O[C@@H](C(=O)N1CCCC1)C2 | 3.114 | -33.79
Cc1cc(C(=O)NCc2c(C)nn(C)c2C)nc(N2CCOCC2)n1 | - | -4.694
CCc1nc(CN2CCCC(NCc3cc(C)no3)C2)no1 (stereo not drawn) | - | -3.364
O=S(=O)(c1cccnc1)N1CCC(OCCCc2ccccc2)C1 (stereo not drawn) | 55.63 | 7.573
FC(F)(F)COCCN1CCc2cncnc2C1 | 0.4967 | 7.309
COc1ccccc1OC1CCN(C(=O)c2cccc(O)c2C)CC1 | - | 1.635
COC(=O)C1CCCN1C(=O)c1ccc(Br)cc1F (stereo not drawn) | - | -19.48
CNc1snc(C)c1C(=O)N1CCCC(n2ccnc2)C1 (stereo not drawn) | -23.91 | -23.87
O=C(c1ccsc1)N1CCC(Nc2cccnn2)CC1 | - | -4.364
Fc1ccc(C2(NCc3ccccc3)CCOCC2)cc1 | - | -11.61
CNC(=O)C1CCN(Cc2nc(-c3ccc(SC)cc3)oc2C)C1 (stereo not drawn) | 14.24 | 12.81

The first 5 entries again:

{"compound": "CN(C)c1ccc(C(=O)Nc2ccn(Cc3ccccn3)n2)cn1", "Mtb heat-shock": -17.14}
{"compound": "CC1CCC(NC(=O)c2nn(C)cc2Br)CC1", "stereo": "stereo not drawn", "Mtb heat-shock": 8.197}
{"compound": "NC(=O)C1CCN(C(=O)NCCOc2ccc3c(c2)OCO3)C1", "stereo": "stereo not drawn", "Mtb heat-shock": -2.753}
{"compound": "Cc1noc(NS(=O)(=O)c2ccc(Cl)s2)c1C", "Mtb growth Cornell": -24.59, "Mtb heat-shock": -4.31}
{"compound": "c1cnc(N2CCOCC3(CCN(c4cnccn4)CC3)C2)nc1", "Mtb growth Cornell": -3.406, "Mtb heat-shock": -0.9198}

Source: ChEMBL document CHEMBL3988442, “University of Dundee, Small-Polar-MMV Screening Library” (2021).